Reference: PubChem BioAssay AID652259 (Drosophila RNAi Screening Center, 2013)
In all, the deposit lists about 22,000 reagents; shown is a random part of those that have a named target and a result. In the full data, 233 (1.1%) were called active. 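Light values are raw, unnormalised plate reads; the ratio scores behind the reporter calls were not deposited.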 Unmarked entries are inactive. Reagents against one gene are numbered here. Names joined by + are all predicted targets of the reagent. Not stated in the record: the amount of reagent, the time to read-out, the dose of the treatment.

Screen: 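Knock-downs that push a Wingless-driven reporter up or down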 (primary screen)
System: Drosophila clone 8 imaginal disc epithelial cells
Reagents: long dsRNA against Drosophila genes
Conditions: pathway stimulated by co-transfected Wingless expression plasmid
Read-out: 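Dual luciferase reads per well after Wingless plasmid stimulation: reporter firefly light and Renilla control light; activity is firefly divided by Renilla, a ratio not deposited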
Scale: firefly reporter light: higher = more Wg reporter light, before normalisation; Renilla control light: higher = more transfected or surviving cells
Call rule: 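a knock-down is a candidate when at least two out of four statistical tests show it departing from its plate mean; one test alone signals a weak candidate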
Meaning of the calls: active = candidate regulator (raises or lowers reporter); inactive = not a candidate

The opening 3 entries, to show the layout:
| gene | reagent no. | firefly reporter light, replicate 1 | firefly reporter light, replicate 2 | Renilla control light, replicate 1 | Renilla control light, replicate 2 |
| --- | --- | --- | --- | --- | --- |
| Grl43a | 1 | 2187 | 9003 | 834 | 2620 |
| Sumo | 1 | 17692 | – | 3755 | – |
| CG13409 | 1 | 35408 | – | 6163 | – |

Main list, repeating the preview:
| gene | reagent no. | firefly reporter light, replicate 1 | firefly reporter light, replicate 2 | Renilla control light, replicate 1 | Renilla control light, replicate 2 |
| --- | --- | --- | --- | --- | --- |
| Grl43a | 1 | 2187 | 9003 | 834 | 2620 |
| Sumo | 1 | 17692 | – | 3755 | – |
| CG13409 | 1 | 35408 | – | 6163 | – |
| da | 1 | 2752 | 6884 | 1372 | 3044 |
| Doc2 | 1 | 4.72e5 | 5.02e5 | 1.88e5 | 1.76e5 |
| CG42712 (retired record) | 1 | 17133 | – | 6388 | – |
| CG18508 | 1 | 28235 | – | 12688 | – |
| Rpn8 | 1 | 2499 | 5260 | 432 | 1427 |
| alphaTub84B | 1 | 21586 | – | 3125 | – |
| Vajk2 | 1 | 3961 | 9379 | 1732 | 4658 |
| ATPsyngamma | 1 | 5622 | – | 1817 | – |
| PIG-Wb | 1 | 6676 | – | 2614 | – |
| CG6280 | 1 | 6306 | – | 1624 | – |
| CG5612 | 1 | 8192 | – | 3324 | – |
| phr | 1 | 1992 | 5517 | 192 | 2593 |
| sxc | 1 | 2770 | 4484 | 585 | 2108 |
| porin | 1 | 12913 | – | 3785 | – |
| CG30008 | 1 | 3.61e5 | 3.79e5 | 1.44e5 | 1.47e5 |
| Impbeta11 + asRNA:CR43429 | 1 | 5801 | – | 2114 | – |
| CG1537 | 1 | 24608 | – | 11740 | – |
| CG12608 | 1 | 2247 | 8072 | 1328 | 2673 |
| Alp2 | 1 | 3440 | 9093 | 954 | 3652 |
| peo | 1 | 7969 | – | 1877 | – |
| CG15021 | 1 | 2048 | 10000 | 2004 | 5515 |
| eas | 1 | 21079 | – | 9590 | – |
| CG6015 | 1 | 7723 | 8794 | 1296 | 1448 |
| Stat92E | 1 | 2396 | 4712 | 965 | 1301 |
| CG33189 | 1 | 6.21e5 | 7.05e5 | 3.80e5 | 2.99e5 |
| pira | 1 | 17937 | – | 7484 | – |
| CG14478 | 1 | 4811 | – | 2045 | – |
| Arpc1 | 1 | 9653 | – | 3417 | – |
| Yp1 | 1 | 33724 | – | 7928 | – |
| GILT3 | 1 | 12400 | – | 12651 | – |
| CG6028 | 1 | 4489 | 9284 | 961 | 1656 |
| CG12848 | 1 | 2836 | 10246 | 843 | 3274 |
| beg | 1 | 2800 | – | 1569 | – |
| CG34302 | 1 | 2115 | – | 1056 | – |
| mus302 | 1 | 7380 | – | 3220 | – |
| CG4297 | 1 | 2781 | 7186 | 1367 | 2912 |
| pdm2 | 1 | 2152 | 4266 | 874 | 2061 |
| pdm2 | 2 | 2845 | 7168 | 614 | 2149 |
| pdm2 | 3 | 2161 | 5474 | 789 | 2156 |
| CG32551 | 1 | 4634 | – | 1716 | – |
| Fim | 1 | 3963 | 4624 | 1283 | 2717 |
| Actbeta | 1 | 4381 | – | 1766 | – |
| Actbeta | 2 | 17094 | – | 11573 | – |
| bnl | 1 | 3384 | – | 1869 | – |
| bnl | 2 | 2102 | 3427 | 405 | 513 |
| eIF4E5 | 1 | 596 | 5113 | 784 | 3040 |
